Reference: PubChem BioAssay AID504793 (Drosophila RNAi Screening Center, 2011)
Test: 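Whole-genome screen for parts of the DNA damage checkpoint at G2/M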 (primary screen). Cell system: Drosophila S2R+ cells. Reagent: long dsRNA against Drosophila genes, about 0.25 µg dsRNA per well. Time to read-out: 4 days of dsRNA, then 4 hours of drug before read-out. Treatment: doxorubicin 0.5 µM for 4 hours to cause double-strand breaks, in cells also given a low, harmless dose of dsRNA against nbs to sensitise the assay. Measurement: 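Mitotic index as the number of phospho-histone H3-positive cells in each well following doxorubicin, given as raw counts without normalisation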. Scale: mitotic cells: higher = more cells in mitosis, weaker G2 arrest. Call rule: 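Genes are called active only when high mitotic counts were reproduced with independent dsRNAs and mitosis was checked for delay without damage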. Meaning of the calls: active = confirmed in follow-up tests; inactive = not confirmed.
The deposit covers about 23,000 reagents; this is a random part of those that have a named target and a result. Over the whole deposit, 62 (0.27%) got an active call. 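Calls come from follow-up tests whose scores are not deposited, so confirmed genes may have low counts here; counts are not normalised per plate.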 The raw values are shown without normalisation.

predicted target | DRSC id | mitotic cells, replicate 1 | Outcome
Vps20 (GeneID 37581) | DRSC04448 | 2 | inactive
GABPI (GeneID 33516) | DRSC00494 | 12 | inactive
GABPI (GeneID 33516) | DRSC27495 | 7 | inactive
IntS6 (GeneID 31496) | DRSC18281 | 12 | inactive
IntS6 (GeneID 31496) | DRSC30100 | 7 | inactive
Pp1-87B (GeneID 49260) | DRSC16794 | 36 | inactive
Pp1-87B (GeneID 49260) | DRSC23299 | 8 | inactive
Pp1-87B (GeneID 49260) | DRSC27290 | 7 | inactive
CG16986 (GeneID 38325) | DRSC08502 | 14 | inactive
Ser7 (GeneID 31917) | DRSC18201 | 6 | inactive
CG11382 (GeneID 31069) | DRSC18624 | 8 | inactive
CaBP1 (GeneID 34976) | DRSC01984 | 6 | inactive
Rilpl (GeneID 31090) | DRSC18494 | 6 | inactive
CG8907 (GeneID 42050) | DRSC16453 | 7 | inactive
CG8907 (GeneID 42050) | DRSC27500 | 4 | inactive
CG32655 (GeneID 318143) | DRSC18925 | 9 | inactive
p130CAS (GeneID 38021) | DRSC07862 | 8 | inactive
p130CAS (GeneID 38021) | DRSC08257 | 15 | inactive
p130CAS (GeneID 38021) | DRSC26616 | 8 | inactive
Nmnat (GeneID 42987) | DRSC14644 | 5 | inactive
Nmnat (GeneID 42987) | DRSC26899 | 3 | inactive
CG32727 (GeneID 318176) | DRSC17519 | 6 | inactive
Egfr (GeneID 37455) | DRSC03871 | 8 | inactive
Egfr (GeneID 37455) | DRSC04613 | 4 | inactive
CG13069 (GeneID 50271) | DRSC09952 | 3 | inactive

4 consecutive reagents already listed, quoted:
predicted target | DRSC id | mitotic cells, replicate 1 | Outcome
CG16986 (GeneID 38325) | DRSC08502 | 14 | inactive
Ser7 (GeneID 31917) | DRSC18201 | 6 | inactive
CG11382 (GeneID 31069) | DRSC18624 | 8 | inactive
CaBP1 (GeneID 34976) | DRSC01984 | 6 | inactive

Continued:
predicted target | DRSC id | mitotic cells, replicate 1 | Outcome
Pex7 (GeneID 38994) | DRSC10651 | 3 | inactive
Fitm (GeneID 38596) | DRSC09772 | 7 | inactive
Fitm (GeneID 38596) | DRSC28750 | 6 | inactive
CG3347 (GeneID 33538) | DRSC00597 | 7 | inactive
TpnC25D (GeneID 33752) | DRSC02965 | 6 | inactive
TpnC25D (GeneID 33752) | DRSC24524 | 5 | inactive
CG34046 (retired record) (GeneID 3885653) | DRSC14075 | 3 | inactive
CG34046 (retired record) (GeneID 3885653) | DRSC30016 | 4 | inactive
Hacd1 (GeneID 34614) | DRSC02988 | 4 | inactive
CG4293 (GeneID 31001) | DRSC18557 | 11 | inactive
CG34124 (GeneID 4379887) | DRSC00849 | 9 | inactive
CG14591 (GeneID 35531) | DRSC04868 | 4 | inactive
Eato (GeneID 34783) | DRSC01891 | 6 | inactive
Eato (GeneID 34783) | DRSC03061 | 5 | inactive
CG8924 (GeneID 32557) | DRSC23027 | 13 | inactive
nwk (GeneID 39052) | DRSC10442 | 9 | inactive
Ran (GeneID 44072) | DRSC20364 | 5 | inactive
Ran (GeneID 44072) | DRSC28160 | 3 | inactive
CG15127 (GeneID 50203) | DRSC05802 | 12 | inactive
CG15127 (GeneID 50203) | DRSC06549 | 7 | inactive
